Assay [1] concerns the target biotinylated human IL-1RI (human) (UniProt P14778). As to the kind of experiment: ECL competition, IL-1 signaling complex formation assay of Example 3.
The target is the same in assay [2]. The assay can be described thus: ECL competition, IL-1 signaling complex formation assay: IL-1RI-coated beads, IL-1β as competitor, IL-1RAcP-Fc-TAG for detection.

Amino acid sequences for entries named in this document (tags omitted). A change or cut given only in a name is not applied to a line headed by its entry. Residues count along the entry.
UniProt P14778, residues 18-336: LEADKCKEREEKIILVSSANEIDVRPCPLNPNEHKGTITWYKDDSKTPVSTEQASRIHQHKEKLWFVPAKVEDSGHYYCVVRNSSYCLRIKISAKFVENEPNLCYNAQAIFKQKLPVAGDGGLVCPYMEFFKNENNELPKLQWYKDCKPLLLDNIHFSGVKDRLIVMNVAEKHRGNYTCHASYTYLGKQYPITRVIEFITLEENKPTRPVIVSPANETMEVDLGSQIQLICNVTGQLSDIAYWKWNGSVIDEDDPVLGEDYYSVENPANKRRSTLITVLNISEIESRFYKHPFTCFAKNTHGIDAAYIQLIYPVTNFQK
UniProt P18510: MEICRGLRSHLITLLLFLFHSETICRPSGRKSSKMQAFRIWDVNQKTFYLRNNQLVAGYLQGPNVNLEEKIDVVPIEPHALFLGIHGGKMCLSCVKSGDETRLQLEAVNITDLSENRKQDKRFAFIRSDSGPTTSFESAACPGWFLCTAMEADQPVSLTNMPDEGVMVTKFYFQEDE

Results are given in words; binding and its absence hold for the method and conditions named. Some results given as binding are weak or reduced against the parent protein; the word gives no strength.

Take “IL-1ra R97D mutant protein (from UniProt P18510 26-177) (ligand)”: the binding result in assay [1] and in assay [2] was “binds” each time.

For the substance “IL-1ra K93A mutant protein (from UniProt P18510 26-177) (ligand)”, the binding entry in assay [1] and in assay [2] was “binds” in each case.

Take “IL-1ra wild-type protein (human recombinant interleukin-1 receptor antagonist having the sequence of SEQ ID NO: 5) (from UniProt P18510 26-177) (ligand)”: the binding entry in assay [1] and in assay [2] was “binds” throughout.

(Values after patent US20050282752A1.)
